# Test results reported in PubChem BioAssay AID624297 (National Center for Advancing Translational Sciences (NCATS), 2012).
# Among all 340,000 compounds or so, about 6,200 (1.8%) were called active. This list was built around the results that the source calls inconclusive (neither active nor inactive); the mix of calls is not that of the screen. Calls follow the shape of the dose curve; as a rule, active = well fitted activation curve with a large enough effect; inconclusive = small, poorly fitted or top-dose-only effect; inactive = no such curve, though single readings can be large or run the other way. Where the call is inconclusive, the potency comes from a doubtful curve fit.
# Assay: A quantitative high throughput screen for small molecules that induce DNA re-replication in SW480 colon adenocarcinoma cells. Also: nearly all actives have a fitted effect of over 55% in size. As to re-replication activation: % of control where 0% means no effect.
# Conditions: Hoechst DNA content imaging, 48 h; re-replication activation: at 46.1 µM (top of the series) unless noted
# Method in brief: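 SW480 cells exposed to compounds for 48 hr at 37 C, 5% CO2, then Hoechst-stained 40 min. Nuclear DNA content imaged by fluorescence scanning (405 nm excitation, 500-530 nm emission); re-replication scored as increased high-intensity nuclei.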
# Potency is read from the fitted curve at half-maximal effect.
Structure (SMILES),Potency,re-replication activation
Cc1nn2c3ccccc3nc2c2ccccc12,"inconclusive: 29.1 µM [activator, partial curve, poor fit]",–
CCOc1ccc(NC(=O)CC(C)S(=O)(=O)c2ccc3c(c2)NC(=O)CO3)cc1 (configuration not stated),"inconclusive: 20.6 µM [activator, single point]",–
O=C(CCCc1ccccc1)Nc1ccnn1C1CCN(Cc2ccc(Cl)cc2)CC1,–,inconclusive: -24.8% [activator]
O=C1C(C2=C(O)c3ccccc3C2=O)=Nc2ccccc21,"inconclusive: 5.8 µM [activator, partial curve, poor fit]",–
Cc1ccc(/C=C/C(=O)O)cc1S(=O)(=O)N(CCO)CCO,"inconclusive: 20.6 µM [activator, partial curve, poor fit]",–
CCCCNC(=O)CCCCCn1c(=O)[nH]c2cc(C(=O)OC)ccc2c1=O,"inconclusive: 0.0041 µM [activator, full curve, poor fit]",–
COC(=O)Nc1ccc(S(=O)(=O)NNC(=O)c2c(O)c3ccccc3[nH]c2=O)cc1,"inconclusive: 29.1 µM [activator, single point]",–
Cc1cc(C)cc(-n2ccnc2SCC(=O)Nc2nccs2)c1,"inconclusive: 18.4 µM [activator, single point]",–
Cc1n[nH]c(C)c1Sc1ccccc1[N+](=O)[O-],–,inactive: 0.5%
Fc1ccc(Cn2nnnc2C(c2cccs2)N2CCCCCC2)cc1 (configuration not stated),"inconclusive: 29.1 µM [activator, single point]",–
COc1ccc(Cl)cc1NS(=O)(=O)c1ccc(OC)c(OC)c1,–,inactive: -5.9%
COc1ccc(C(=O)/C=C/c2ccc(N3CCCCC3)c([N+](=O)[O-])c2)c(OC)c1,"inconclusive: 29.1 µM [activator, single point]",–
CC1=Cc2ccccc2C(C#N)N1C(=O)c1ccccc1 (configuration not stated),"inconclusive: 29.1 µM [activator, single point]",–
CCC(=C/c1sc2ccc3ccccc3c2[n+]1C)/C=C1\Sc2ccc3ccccc3c2N1C,"inconclusive: 29.1 µM [activator, single point]",–
Clc1cccc(N2CCN(c3ncnc4nc[nH]c34)CC2)c1,"inconclusive: 29.1 µM [activator, single point]",–
CC1CC(C)CN(CCCNC(=O)c2ccc(CS(=O)(=O)Cc3cccc(Cl)c3)o2)C1 (configuration not stated),"inconclusive: 23.1 µM [activator, single point]",–
CCOc1c(Br)cc(C(=O)OCC(=O)N2CCc3ccccc3C2)cc1OC,"inconclusive: 16.4 µM [activator, single point]",–
O=C(C1=NNCC1c1ccc(Cl)cc1)C1CO1 (configuration not stated),"inconclusive: 16.4 µM [activator, single point]",–
O=S(=O)(/N=C(/Nc1ccccn1)c1ccccc1)c1ccc(F)cc1,–,inactive: -8.35%
O=P(O)(Cc1ccccc1)Cc1ccccc1,–,inactive: -3.74%
COc1cc(C(=O)NCC2CCCN2S(=O)(=O)c2cccs2)cc(OC)c1OC (configuration not stated),"inconclusive: 7.31 µM [activator, partial curve, poor fit]",–
CCc1ccc(N(CC(=O)Nc2ccccc2C(=O)N2CCOCC2)S(C)(=O)=O)cc1,–,inactive: -2.01%
Cc1ccc(NC(=O)C(C)SCC(=O)Nc2ccc(F)cc2)cc1S(=O)(=O)N1CCOCC1 (configuration not stated),"inconclusive: 18.4 µM [activator, single point]",–

Structure (SMILES),Potency,re-replication activation
Cc1ccc(NCC(=O)N/N=C/c2cccc(Oc3ccccc3)c2)cc1,"inconclusive: 23.1 µM [activator, single point]",–
Cc1cc(C)c(S(=O)(=O)NC2CC2)c(C)c1,"inconclusive: 1.84 µM [activator, partial curve, poor fit]",–
Cc1ccc(NC(=S)N(CCCN2CCCC2)Cc2cccn2Cc2ccc(Cl)cc2)cc1Cl,"inconclusive: 0.517 µM [activator, full curve, poor fit]",–
CCO[C@@H]1OC(C(=O)N2CCN(Cc3ccccc3)CC2)=C[C@H](c2ccc(C(F)(F)F)cc2)[C@H]1CCCO,"inconclusive: 0.0206 µM [activator, full curve, poor fit]",–
O=C(/C=C/c1cccc(F)c1)OCC(=O)N1CCCC1,active: 8.2 µM,–
COc1ccc(NC(=O)CN(C)C(=O)c2ccc(N3CCCCCC3)c([N+](=O)[O-])c2)cc1,–,inactive: 1.41%
Cc1cccc(N2CCN(C(=O)C3CCN(c4nnc(-n5cccc5)s4)CC3)CC2C)c1 (configuration not stated),–,inactive: -5.2%
O=C(NCCOc1ccc(Cl)cc1)C1CC(=O)N(c2ccc(F)cc2)C1 (configuration not stated),"inconclusive: 9.2 µM [activator, partial curve, poor fit]",–
CCOc1cc(CNCc2ccccc2)ccc1OCc1ccc(Cl)cc1,active: 14.6 µM,–
Cc1cc(NCCc2ccccc2F)n2ncnc2n1,"inconclusive: 16.4 µM [activator, partial curve]",–
Oc1ccc(C=NNc2nc3ccccc3s2)c(O)c1,"inconclusive: 6.51 µM [activator, single point]",–
CNC(=O)c1c(NC(=O)c2cccc(C)c2)sc2c1CCC2,–,inconclusive: 68% [activator]
O=C1NC(Cc2c[nH]c3ccccc23)C(=O)N1Cc1cccc2ccccc12 (configuration not stated),–,inactive: -26.7%
C#CCOCCOCCOCCNc1nc(N2CCN(C(=O)[C@H]([C@@H](C)CC)n3cc([C@@H](N)CC(C)C)nn3)CC2)nc(N2CCN(C(=O)[C@H](Cc3cc4ccccc4[nH]3)n3cc([C@@H](N)Cc4ccc(O)cc4)nn3)CC2)n1,–,inactive: 1.91% [at 9.22 µM]
Cc1ccc(NC(=O)c2ncn(CCCN3CCN(Cc4cccc5ccccc45)CC3)n2)cc1C,–,inactive: -4.59%
O=c1nc(-c2ccccc2Cl)c2cc(F)ccc2[nH]1,–,inactive: -11.9%
Oc1ccccc1C=NC1=NN(c2cccc(C(F)(F)F)c2)CC1,"inconclusive: 29.1 µM [activator, single point]",–
O=C(N/N=C/c1ccc(Cl)c([N+](=O)[O-])c1)c1ccc2c(c1)OCCO2,"inconclusive: 8.2 µM [activator, partial curve, poor fit]",–
C[C@H](Cn1cnc2c(N)ncnc21)OCP(=O)(O)O,–,inactive: -3.14%
Cc1cc(C)c(NC(=O)C2CC(=O)N(Cc3ccccc3)C2)c(C)c1 (configuration not stated),active: 16.4 µM,–
COc1cc(-c2c(NC(=O)c3ccco3)oc3c(C)cccc3c2=O)cc(OC)c1OC,"inconclusive: 12.6 µM [activator, single point]",–
COc1cccc(C(=O)C(=O)c2cccc(OC)c2OC)c1OC,–,inactive: -7.25%
O=C(COc1ccc(-c2ccccc2)cc1)NN=C1CCCC1,"inconclusive: 35.5 µM [activator, partial curve, poor fit]",–

Structure (SMILES),Potency,re-replication activation
COc1ccccc1NC(=O)CSc1nnc(-c2ccccn2)n1Cc1ccco1,"inconclusive: 18.4 µM [activator, single point]",–
O=C(CSc1c2c(nc3cc(Cl)ccc13)CCCC2)NCc1ccco1,"inconclusive: 29.1 µM [activator, partial curve, poor fit]",–
CCOc1ccc(Br)cc1CC(=O)O,–,inactive: 1.16%
Cc1cc(C)c2c(c1)/C(=N/Nc1ccc(S(N)(=O)=O)cc1[N+](=O)[O-])CCC2,–,inactive: -6.97%
OCCNc1nc(Nc2ccc(Cl)cc2)nc(N2CCCC2)n1,–,inactive: 2.34%
Cc1ccccc1N=C1SC(CC(=O)Nc2ccc3ccccc3c2)C(=O)N1Cc1ccccn1 (configuration not stated),"inconclusive: 29.1 µM [activator, single point]",–
O=Cc1cn(CCC(=O)O)nc1-c1cccc(Br)c1,"inconclusive: 29.1 µM [activator, single point]",–
COc1ccc(C(=O)C2CCCN(C(=O)CCNC(C)=O)C2)cc1OC (configuration not stated),"inconclusive: 14.6 µM [activator, single point]",–
C=CCc1ccccc1OCC(O)CN1CCN(CCN2C(=O)c3cccc4cccc(c34)C2=O)CC1 (configuration not stated),"inconclusive: 0.82 µM [activator, full curve, poor fit]",–
O=c1cc(CN2CCN(Cc3ccccc3)CC2)c2ccc(O)cc2o1,–,inactive: -7.56%
COc1ccc(C(Nc2cc(C)ccn2)c2ccc3ccc(C)nc3c2O)cc1 (configuration not stated),"inconclusive: 20.6 µM [activator, single point]",–
CCCc1ccc(C(=O)N2CCN(c3ccccc3OCC)CC2)cc1,"inconclusive: 18.4 µM [activator, partial curve, poor fit]",–
COc1ccc(S(=O)(=O)Oc2cccc(/C=N/N=C3/NC(=O)C(CC(=O)O)S3)c2)cc1 (configuration not stated),active: 6.51 µM,–
S=C1NC(c2cccs2)=CC(c2ccc(Br)cc2)N1 (configuration not stated),active: 20.6 µM,–
CC1C(=O)C(C)C(c2cc(Br)ccc2O)NC1c1cc(Br)ccc1O (configuration not stated),"inconclusive: 29.1 µM [activator, single point]",–
Cc1ccc(-n2nc3c(=O)n(CC(=O)NC(C)CCc4ccccc4)nc(C)c3c2C)cc1 (configuration not stated),–,inactive: 0.298%
O=C(NCc1ccccc1CN1CCCC1)c1cc2cc(Cl)ccc2o1,"inconclusive: 29.1 µM [activator, partial curve, poor fit]",–
O=C(NC1CCCCC1)C1CCN(C(=O)c2ccc(Cl)cc2)CC1,"inconclusive: 18.4 µM [activator, single point]",–
O=C(N/N=C\c1cccc(OC(=O)c2ccco2)c1)c1ccc2c(c1)OCO2,"inconclusive: 20.6 µM [activator, single point]",–
Cc1cc(C(=O)OCC(=O)Nc2cccc(S(=O)(=O)N3CCOCC3)c2)c(C)o1,"inconclusive: 0.82 µM [activator, full curve, poor fit]",–
COCCCn1c(C(=O)NCCC2=CCCCC2)cc2c(=O)n3ccccc3nc21,"inconclusive: 0.92 µM [activator, full curve]",–

# Looked up one by one from the list above, 4 records:
Structure (SMILES),Potency,re-replication activation
COc1ccc(C(Nc2cc(C)ccn2)c2ccc3ccc(C)nc3c2O)cc1 (configuration not stated),"inconclusive: 20.6 µM [activator, single point]",–
COc1ccc(C(=O)C2CCCN(C(=O)CCNC(C)=O)C2)cc1OC (configuration not stated),"inconclusive: 14.6 µM [activator, single point]",–
Cc1cc(C)c2c(c1)/C(=N/Nc1ccc(S(N)(=O)=O)cc1[N+](=O)[O-])CCC2,–,inactive: -6.97%
CCCc1ccc(C(=O)N2CCN(c3ccccc3OCC)CC2)cc1,"inconclusive: 18.4 µM [activator, partial curve, poor fit]",–
